Measured values published in article PMC3229523, “Identification of Lactoferricin B Intracellular Targets Using an Escherichia coli Proteome Chip” (PLoS ONE, 2011).
These are yes or no findings as the source states them, for the method shown. Some results given as binding are weak or reduced against the parent protein; the word gives no strength.

Protein sequences, listed by entry. Tags and fused reporters are not part of them. Residues count along the entry.
UniProt P0DP89: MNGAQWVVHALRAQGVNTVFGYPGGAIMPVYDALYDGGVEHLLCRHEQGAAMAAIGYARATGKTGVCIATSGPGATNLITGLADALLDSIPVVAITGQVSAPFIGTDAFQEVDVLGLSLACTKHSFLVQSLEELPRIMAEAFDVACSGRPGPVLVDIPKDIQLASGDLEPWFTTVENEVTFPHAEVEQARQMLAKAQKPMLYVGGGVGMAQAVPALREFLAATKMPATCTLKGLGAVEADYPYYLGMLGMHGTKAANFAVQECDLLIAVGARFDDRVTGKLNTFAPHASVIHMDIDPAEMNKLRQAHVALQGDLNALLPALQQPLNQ
UniProt P02769, residues 25-607: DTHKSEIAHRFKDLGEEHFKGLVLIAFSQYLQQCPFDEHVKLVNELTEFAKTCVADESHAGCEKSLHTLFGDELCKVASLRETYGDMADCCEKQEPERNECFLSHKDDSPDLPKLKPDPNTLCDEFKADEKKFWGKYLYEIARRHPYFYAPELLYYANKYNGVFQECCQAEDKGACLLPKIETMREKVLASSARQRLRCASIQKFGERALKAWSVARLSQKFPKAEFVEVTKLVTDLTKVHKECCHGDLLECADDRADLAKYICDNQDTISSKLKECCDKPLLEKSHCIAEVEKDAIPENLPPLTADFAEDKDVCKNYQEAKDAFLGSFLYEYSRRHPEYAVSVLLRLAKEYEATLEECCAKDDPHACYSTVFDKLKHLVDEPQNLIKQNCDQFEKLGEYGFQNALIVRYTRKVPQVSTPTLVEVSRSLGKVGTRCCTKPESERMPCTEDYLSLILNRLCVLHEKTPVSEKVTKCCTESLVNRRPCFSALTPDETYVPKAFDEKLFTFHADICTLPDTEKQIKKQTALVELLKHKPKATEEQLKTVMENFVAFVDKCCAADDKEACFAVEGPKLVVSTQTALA
UniProt P75838: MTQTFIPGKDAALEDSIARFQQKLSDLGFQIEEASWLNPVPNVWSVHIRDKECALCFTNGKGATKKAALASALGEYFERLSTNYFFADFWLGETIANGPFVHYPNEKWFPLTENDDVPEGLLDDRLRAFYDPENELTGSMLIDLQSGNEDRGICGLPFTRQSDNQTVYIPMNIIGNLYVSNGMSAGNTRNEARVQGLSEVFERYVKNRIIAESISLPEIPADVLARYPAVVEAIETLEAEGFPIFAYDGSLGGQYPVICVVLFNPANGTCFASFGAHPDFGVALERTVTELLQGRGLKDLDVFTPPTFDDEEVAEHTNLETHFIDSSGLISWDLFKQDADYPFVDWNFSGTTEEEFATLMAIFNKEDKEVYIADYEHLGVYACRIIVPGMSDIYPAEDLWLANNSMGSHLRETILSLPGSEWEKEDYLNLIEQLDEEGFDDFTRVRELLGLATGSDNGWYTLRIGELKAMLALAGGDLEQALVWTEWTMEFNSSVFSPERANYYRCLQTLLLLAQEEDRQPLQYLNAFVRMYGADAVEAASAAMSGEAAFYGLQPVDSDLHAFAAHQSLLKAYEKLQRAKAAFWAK
UniProt P0A8Z7: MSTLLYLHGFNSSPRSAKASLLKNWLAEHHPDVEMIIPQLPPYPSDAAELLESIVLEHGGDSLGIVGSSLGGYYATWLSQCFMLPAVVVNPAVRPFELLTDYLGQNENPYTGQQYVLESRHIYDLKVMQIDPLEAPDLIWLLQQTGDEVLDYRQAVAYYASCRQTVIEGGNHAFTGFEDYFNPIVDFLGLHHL

Assays:
[1] = target: T1, DyLight 549-labeled Lactoferricin B (UniProt P24627); assay: fluorescence polarisation; 100 nM DyLight 549-labeled LfcinB as tracer; two-fold serial dilution of protein from 0.4 µM to 0.025 µM in PBS, 0.005% BSA, 0.01% Triton X-100; room temperature, 1 h; compared with BSA; both purified
T1 sequence (peptide, DyLight 549 (NHS ester labelling, sites not stated)): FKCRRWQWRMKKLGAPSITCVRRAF

DsbC (E. coli K-12) = target: T2, DsbC (E. coli K-12) (UniProt P0AEG6); assay: peptide or protein array; E. coli proteome chip: purified His-tagged proteins printed in duplicate on Fullmoon slides, blocked with 1% BSA; 10 nM N-terminal biotinylated LfcinB with 1% BSA, room temperature, 1 h; detected with DyLight 649-labeled streptavidin, ratio to DyLight 549-labeled anti-His antibody; ProCAT normalisation, local cut-off; triplicate chips; both purified
T2 sequence: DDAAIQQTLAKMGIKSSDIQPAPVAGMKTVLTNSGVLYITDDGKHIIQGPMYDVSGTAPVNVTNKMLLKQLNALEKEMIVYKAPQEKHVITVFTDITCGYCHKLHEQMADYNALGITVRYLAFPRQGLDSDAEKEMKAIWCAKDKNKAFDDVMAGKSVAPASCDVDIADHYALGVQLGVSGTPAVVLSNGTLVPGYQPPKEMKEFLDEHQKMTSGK

YjiV (E. coli K-12) = target: T3, YjiV (E. coli K-12) (UniProt P39393); assay: as above
T3 sequence: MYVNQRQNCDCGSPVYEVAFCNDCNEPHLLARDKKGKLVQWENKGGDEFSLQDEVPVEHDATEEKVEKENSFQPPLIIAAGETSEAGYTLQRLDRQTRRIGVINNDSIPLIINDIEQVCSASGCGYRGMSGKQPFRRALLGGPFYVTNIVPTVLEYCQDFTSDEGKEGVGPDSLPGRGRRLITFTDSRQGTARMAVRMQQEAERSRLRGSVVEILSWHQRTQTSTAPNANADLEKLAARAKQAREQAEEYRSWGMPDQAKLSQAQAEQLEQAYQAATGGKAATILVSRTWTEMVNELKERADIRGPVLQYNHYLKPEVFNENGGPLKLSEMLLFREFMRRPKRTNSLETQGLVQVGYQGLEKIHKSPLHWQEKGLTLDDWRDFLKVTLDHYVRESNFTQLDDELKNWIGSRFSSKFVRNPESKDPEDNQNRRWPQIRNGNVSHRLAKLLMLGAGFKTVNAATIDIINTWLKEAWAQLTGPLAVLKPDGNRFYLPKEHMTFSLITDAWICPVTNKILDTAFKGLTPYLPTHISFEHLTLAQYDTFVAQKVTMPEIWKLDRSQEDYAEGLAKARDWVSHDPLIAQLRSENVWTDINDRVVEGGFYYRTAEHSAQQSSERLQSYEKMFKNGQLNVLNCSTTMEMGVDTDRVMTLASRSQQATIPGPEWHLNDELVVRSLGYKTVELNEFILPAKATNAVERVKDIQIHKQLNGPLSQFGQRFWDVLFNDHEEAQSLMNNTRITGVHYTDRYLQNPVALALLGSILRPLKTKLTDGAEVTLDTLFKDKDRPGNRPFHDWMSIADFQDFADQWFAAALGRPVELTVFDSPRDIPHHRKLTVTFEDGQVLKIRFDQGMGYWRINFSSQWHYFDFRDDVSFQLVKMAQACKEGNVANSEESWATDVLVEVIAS

YrhA (E. coli K-12) = target: T4, YrhA (E. coli K-12) (UniProt P46856); assay: as above
T4 sequence: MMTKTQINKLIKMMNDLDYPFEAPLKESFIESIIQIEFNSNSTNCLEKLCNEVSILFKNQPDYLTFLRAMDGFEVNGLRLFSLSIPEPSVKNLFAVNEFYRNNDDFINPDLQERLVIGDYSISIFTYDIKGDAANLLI

IlvG (E. coli K-12) = IlvG (E. coli K-12) (UniProt P0DP89); assay: as above
PtsA (E. coli K-12) = target: T5, PtsA (E. coli K-12) (UniProt P32670); assay: as above
T5 sequence: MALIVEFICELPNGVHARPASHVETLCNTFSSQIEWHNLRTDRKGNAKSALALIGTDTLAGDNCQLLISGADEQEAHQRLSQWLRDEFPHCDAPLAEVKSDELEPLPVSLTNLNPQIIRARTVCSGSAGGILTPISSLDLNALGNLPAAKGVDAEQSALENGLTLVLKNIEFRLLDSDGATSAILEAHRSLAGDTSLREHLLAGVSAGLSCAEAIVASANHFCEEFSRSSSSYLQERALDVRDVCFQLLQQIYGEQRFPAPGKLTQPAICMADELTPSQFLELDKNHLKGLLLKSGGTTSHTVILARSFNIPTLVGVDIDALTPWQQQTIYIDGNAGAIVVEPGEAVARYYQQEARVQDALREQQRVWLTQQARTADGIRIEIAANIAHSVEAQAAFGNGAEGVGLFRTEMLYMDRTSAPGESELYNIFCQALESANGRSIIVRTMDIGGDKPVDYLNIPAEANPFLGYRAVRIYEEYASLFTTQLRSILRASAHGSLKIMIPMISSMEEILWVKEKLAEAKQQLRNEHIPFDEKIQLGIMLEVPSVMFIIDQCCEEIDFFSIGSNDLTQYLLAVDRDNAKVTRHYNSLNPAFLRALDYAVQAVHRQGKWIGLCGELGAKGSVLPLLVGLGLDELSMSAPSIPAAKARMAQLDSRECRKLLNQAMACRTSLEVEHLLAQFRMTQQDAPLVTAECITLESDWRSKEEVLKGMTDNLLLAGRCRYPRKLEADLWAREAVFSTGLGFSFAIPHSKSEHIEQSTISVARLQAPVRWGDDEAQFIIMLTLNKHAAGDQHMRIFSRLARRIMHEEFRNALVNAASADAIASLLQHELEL

DsbG (E. coli K-12) = target: T6, DsbG (E. coli K-12) (UniProt P77202); assay: as above
T6 sequence: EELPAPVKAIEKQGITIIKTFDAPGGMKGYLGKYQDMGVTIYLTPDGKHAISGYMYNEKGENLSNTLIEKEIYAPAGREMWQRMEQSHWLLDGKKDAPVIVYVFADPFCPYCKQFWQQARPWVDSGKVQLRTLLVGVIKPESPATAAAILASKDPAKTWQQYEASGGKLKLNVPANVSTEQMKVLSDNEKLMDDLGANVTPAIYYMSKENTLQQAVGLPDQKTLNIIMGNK

YeeL (E. coli K-12) = target: T7, YeeL (E. coli K-12) (UniProt P76349); assay: as above
T7 sequence: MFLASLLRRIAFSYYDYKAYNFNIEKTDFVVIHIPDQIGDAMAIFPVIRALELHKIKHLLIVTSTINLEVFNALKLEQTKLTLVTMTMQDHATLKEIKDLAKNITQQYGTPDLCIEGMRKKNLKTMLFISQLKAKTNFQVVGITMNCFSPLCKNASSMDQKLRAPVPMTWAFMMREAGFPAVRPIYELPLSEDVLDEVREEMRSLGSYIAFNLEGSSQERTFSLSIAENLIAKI

YlbE (E. coli K-12) = target: T8, YlbE (E. coli K-12) (UniProt P77129); assay: as above
T8 sequence: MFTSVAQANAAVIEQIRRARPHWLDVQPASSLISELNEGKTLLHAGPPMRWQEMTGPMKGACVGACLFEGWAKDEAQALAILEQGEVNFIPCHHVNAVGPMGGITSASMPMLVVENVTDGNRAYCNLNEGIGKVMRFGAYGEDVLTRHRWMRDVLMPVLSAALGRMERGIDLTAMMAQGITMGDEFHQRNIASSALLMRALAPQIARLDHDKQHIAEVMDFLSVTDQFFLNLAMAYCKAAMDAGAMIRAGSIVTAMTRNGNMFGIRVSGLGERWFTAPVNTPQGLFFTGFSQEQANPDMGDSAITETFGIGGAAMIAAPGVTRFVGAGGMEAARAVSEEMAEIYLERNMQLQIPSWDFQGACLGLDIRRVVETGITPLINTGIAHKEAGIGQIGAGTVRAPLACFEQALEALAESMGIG

YifN (E. coli K-12) = target: T9, YifN (E. coli K-12) (UniProt P56259); assay: as above
T9 sequence: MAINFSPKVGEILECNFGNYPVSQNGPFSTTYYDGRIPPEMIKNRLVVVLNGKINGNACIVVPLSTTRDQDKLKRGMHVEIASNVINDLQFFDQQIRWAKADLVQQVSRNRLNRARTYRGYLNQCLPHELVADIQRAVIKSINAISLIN

YhbN (E. coli K-12) = target: T10, YhbN (E. coli K-12) (UniProt P0ADV1); assay: as above
T10 sequence: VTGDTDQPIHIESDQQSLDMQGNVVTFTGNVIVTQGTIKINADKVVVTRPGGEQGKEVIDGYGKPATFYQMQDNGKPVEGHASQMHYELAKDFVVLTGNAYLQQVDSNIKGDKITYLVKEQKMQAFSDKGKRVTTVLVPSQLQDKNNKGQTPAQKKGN

[2] = target: T1, DyLight 549-labeled Lactoferricin B; assay: fluorescence polarisation; data not shown; DyLight 549-labeled LfcinB with the tested proteins, compared with BSA; both purified

Measured: binding

Bovine Serum Albumin (from UniProt P02769 25-607)
no binding (tested: 0.4 µM): [1]

N-terminal biotinylated Lactoferricin B (from UniProt P24627 36-60) (peptide)
not listed: [1] | [2]
binds: all other assays above

YcaO (from UniProt P75838 1-586)
binds: [2]

YqiA (from UniProt P0A8Z7 1-193)
binds: [2]
